# According to the supplement of paper PMC11732987, “Enantioselective OTUD7B fragment discovery through chemoproteomics screening and high-throughput optimisation” (Communications Chemistry, 2025):
# Protein sequences, listed by entry. Tags and fused reporters are not part of them. Lines headed by an entry give the natural chain unless they say otherwise; changes in a name come on top. Residues count along the entry.
# UniProt Q7Z2W4: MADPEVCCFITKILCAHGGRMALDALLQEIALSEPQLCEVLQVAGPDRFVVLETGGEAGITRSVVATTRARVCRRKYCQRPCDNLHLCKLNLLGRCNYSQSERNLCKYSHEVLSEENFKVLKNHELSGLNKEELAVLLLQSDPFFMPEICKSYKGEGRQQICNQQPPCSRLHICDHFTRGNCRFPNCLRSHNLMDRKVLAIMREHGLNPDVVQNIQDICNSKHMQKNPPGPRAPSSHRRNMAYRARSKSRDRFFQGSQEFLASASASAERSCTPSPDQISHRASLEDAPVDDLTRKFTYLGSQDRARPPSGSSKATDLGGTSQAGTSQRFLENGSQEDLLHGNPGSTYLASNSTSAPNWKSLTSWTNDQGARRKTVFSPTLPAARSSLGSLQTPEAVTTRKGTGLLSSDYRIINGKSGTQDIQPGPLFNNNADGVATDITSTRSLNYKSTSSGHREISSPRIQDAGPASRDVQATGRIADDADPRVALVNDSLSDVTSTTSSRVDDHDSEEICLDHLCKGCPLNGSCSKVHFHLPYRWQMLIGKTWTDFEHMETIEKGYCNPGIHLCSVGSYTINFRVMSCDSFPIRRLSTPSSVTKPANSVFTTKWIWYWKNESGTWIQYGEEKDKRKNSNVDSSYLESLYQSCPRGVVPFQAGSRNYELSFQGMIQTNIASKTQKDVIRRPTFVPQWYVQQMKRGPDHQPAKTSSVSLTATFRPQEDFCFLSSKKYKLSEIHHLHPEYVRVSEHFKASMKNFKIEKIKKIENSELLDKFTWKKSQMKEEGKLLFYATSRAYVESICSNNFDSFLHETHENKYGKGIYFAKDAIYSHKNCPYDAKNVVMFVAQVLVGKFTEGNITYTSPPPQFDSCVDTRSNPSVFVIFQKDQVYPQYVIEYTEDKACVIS
# UniProt Q14202: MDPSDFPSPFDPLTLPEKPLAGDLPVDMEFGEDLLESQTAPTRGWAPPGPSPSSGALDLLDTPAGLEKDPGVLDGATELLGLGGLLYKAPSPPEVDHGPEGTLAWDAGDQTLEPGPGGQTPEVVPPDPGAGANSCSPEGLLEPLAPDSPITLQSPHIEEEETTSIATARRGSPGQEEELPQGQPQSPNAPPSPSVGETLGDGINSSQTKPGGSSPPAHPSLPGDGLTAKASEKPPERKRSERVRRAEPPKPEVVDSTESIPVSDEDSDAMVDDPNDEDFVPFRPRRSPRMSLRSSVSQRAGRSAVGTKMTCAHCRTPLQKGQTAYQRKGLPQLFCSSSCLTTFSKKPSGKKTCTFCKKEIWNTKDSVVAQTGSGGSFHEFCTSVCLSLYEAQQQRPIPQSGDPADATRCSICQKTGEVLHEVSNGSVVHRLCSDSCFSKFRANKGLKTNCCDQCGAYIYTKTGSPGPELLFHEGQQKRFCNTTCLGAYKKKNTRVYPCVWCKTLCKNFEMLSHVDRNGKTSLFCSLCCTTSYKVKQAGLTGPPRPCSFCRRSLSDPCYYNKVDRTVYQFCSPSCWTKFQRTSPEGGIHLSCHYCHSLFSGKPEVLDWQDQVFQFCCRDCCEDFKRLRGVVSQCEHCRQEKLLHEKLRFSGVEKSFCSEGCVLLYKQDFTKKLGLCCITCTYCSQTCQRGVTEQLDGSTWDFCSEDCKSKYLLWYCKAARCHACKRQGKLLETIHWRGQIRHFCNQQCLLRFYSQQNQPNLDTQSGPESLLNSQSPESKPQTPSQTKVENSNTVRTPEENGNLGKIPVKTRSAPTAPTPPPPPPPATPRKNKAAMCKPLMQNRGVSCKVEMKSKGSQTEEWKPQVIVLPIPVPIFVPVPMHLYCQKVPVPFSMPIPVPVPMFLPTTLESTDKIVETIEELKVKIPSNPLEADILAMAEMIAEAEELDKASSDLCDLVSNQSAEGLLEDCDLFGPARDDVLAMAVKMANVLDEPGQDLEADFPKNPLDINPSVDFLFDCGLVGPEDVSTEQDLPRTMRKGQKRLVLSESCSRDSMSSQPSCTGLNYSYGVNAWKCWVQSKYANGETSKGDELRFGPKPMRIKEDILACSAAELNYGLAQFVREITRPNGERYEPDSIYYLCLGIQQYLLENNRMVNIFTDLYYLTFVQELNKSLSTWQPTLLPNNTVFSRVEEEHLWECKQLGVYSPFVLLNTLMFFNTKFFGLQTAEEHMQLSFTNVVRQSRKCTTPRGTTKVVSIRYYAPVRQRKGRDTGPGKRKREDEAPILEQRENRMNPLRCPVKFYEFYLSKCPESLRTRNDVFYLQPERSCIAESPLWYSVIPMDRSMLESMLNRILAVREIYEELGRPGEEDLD
# UniProt Q86WB0: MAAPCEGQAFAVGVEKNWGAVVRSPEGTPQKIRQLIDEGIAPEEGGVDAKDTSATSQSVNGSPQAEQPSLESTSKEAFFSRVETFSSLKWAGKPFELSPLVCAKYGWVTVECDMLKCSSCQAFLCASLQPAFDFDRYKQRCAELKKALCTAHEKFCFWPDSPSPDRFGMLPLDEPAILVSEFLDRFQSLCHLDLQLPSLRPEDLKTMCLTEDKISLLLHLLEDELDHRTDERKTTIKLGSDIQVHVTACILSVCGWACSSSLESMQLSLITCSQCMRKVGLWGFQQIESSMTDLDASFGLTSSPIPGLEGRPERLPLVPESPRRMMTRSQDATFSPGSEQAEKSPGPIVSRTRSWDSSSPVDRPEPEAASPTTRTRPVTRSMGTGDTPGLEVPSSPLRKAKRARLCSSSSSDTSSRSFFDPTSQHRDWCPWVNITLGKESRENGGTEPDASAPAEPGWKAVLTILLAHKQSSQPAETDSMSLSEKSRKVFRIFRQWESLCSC
# UniProt Q7Z3T8: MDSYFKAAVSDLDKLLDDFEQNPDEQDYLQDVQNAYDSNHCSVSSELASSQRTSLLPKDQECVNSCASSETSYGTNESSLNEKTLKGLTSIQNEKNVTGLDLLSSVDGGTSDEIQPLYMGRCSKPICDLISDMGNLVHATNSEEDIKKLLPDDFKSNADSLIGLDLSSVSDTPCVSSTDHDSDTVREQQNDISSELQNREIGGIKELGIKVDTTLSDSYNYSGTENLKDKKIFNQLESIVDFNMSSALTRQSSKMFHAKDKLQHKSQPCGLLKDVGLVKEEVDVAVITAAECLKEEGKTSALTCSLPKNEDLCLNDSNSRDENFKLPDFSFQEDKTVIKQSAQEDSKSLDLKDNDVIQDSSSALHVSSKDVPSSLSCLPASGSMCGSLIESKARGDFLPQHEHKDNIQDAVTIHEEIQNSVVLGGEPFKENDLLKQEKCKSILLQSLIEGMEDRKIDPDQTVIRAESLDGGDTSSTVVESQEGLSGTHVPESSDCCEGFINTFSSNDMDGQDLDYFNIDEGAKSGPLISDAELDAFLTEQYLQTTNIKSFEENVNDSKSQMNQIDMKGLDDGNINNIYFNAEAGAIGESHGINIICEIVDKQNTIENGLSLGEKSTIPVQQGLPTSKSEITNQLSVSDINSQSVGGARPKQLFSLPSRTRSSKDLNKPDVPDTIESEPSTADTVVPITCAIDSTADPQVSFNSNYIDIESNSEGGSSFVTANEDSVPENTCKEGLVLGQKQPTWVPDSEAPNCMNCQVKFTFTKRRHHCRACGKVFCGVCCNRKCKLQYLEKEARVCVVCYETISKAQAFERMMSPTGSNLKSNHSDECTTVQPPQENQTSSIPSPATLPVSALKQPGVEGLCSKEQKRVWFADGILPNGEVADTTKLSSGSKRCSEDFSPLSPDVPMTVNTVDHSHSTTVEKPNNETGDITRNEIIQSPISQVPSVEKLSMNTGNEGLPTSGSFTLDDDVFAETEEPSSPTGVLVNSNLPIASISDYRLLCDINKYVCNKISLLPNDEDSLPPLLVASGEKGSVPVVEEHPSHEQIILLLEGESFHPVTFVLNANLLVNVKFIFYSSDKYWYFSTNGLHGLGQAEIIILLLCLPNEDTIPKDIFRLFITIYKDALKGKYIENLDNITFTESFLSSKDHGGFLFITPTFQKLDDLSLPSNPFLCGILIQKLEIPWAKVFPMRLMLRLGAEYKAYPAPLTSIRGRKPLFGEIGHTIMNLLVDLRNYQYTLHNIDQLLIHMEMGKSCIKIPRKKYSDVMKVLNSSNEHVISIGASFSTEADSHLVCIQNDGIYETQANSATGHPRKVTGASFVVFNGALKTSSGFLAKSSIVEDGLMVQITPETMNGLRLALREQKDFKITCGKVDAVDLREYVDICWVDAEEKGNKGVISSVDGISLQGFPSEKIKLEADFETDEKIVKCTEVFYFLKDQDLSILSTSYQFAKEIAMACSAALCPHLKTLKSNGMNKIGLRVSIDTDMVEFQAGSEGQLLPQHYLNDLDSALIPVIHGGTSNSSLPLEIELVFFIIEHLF
# UniProt Q8N5P1: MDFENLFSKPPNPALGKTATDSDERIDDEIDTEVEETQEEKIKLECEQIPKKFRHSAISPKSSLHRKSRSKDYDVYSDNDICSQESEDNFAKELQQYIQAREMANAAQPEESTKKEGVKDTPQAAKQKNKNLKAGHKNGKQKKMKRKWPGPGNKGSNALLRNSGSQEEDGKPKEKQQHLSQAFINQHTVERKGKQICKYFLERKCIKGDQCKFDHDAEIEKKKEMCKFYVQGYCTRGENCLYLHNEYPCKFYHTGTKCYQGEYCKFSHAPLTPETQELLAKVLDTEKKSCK
# UniProt Q9H2Y7: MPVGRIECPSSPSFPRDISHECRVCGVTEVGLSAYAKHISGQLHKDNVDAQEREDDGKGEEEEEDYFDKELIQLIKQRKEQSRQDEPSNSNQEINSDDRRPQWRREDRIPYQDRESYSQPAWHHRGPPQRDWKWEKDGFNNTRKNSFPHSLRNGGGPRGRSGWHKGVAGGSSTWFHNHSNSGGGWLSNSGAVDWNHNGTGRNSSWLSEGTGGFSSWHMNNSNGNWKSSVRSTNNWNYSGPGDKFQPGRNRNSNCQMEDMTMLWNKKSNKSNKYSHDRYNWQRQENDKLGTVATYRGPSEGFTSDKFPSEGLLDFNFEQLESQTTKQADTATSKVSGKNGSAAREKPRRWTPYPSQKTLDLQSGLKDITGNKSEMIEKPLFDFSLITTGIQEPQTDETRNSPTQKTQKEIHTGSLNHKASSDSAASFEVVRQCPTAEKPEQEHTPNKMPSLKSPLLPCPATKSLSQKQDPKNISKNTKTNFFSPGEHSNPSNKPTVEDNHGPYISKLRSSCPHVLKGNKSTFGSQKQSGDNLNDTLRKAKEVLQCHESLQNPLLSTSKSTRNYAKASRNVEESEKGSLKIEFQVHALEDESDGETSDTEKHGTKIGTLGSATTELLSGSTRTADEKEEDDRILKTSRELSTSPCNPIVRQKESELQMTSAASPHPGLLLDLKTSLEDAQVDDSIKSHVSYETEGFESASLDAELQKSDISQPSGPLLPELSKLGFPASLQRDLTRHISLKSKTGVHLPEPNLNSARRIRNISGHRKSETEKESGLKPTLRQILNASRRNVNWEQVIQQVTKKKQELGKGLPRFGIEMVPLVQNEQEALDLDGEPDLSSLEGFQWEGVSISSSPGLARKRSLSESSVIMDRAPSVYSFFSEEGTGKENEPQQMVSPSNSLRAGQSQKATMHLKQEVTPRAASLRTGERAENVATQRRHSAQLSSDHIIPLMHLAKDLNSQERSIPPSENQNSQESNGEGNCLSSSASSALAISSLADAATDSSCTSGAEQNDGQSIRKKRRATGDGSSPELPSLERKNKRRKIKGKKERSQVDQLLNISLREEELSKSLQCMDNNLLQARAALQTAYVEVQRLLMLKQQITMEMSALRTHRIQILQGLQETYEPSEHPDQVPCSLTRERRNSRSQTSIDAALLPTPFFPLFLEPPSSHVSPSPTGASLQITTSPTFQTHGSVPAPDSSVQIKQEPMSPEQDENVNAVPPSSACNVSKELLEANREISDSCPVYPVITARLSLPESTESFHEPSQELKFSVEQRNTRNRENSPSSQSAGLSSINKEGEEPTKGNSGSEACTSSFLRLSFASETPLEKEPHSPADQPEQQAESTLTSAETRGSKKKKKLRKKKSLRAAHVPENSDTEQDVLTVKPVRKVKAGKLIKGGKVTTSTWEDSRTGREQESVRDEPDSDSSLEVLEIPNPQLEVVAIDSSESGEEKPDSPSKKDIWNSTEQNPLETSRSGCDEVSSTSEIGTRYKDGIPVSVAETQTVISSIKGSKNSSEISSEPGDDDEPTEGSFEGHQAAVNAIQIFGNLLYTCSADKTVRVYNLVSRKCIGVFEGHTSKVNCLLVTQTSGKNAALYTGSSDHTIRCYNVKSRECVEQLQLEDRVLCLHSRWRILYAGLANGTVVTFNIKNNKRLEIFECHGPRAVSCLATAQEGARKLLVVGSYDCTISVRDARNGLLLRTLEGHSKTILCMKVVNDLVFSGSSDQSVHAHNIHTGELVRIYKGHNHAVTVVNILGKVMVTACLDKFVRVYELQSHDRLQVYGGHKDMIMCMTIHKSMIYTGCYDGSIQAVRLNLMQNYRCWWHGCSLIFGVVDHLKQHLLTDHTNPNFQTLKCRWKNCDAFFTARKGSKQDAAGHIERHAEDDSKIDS
# UniProt Q9HBF4, 210-230: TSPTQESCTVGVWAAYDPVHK
# Some of the results follow. The data scatter; read single values as rough.
# Compound: ClCC(=O)N[C@H]1CCCc2ccccc12
# Test: log2 mean competition ratio of IA-DTB cysteine labelling (DMSO/compound) (log2 ratio); higher = stronger cysteine engagement by compound
# Details: 50 µM; treatment time: 4 h; cell line lysate: HEK293T
# Experimental: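 IA-DTB competitive cysteine chemoproteomics in HEK293T RIPA lysate. Lysates were treated with compound 29 or 30 at 50 or 200 µM for 4 h, then IA-DTB (500 µM, 1 h), trypsin-digested, NeutrAvidin-enriched and analysed by diaPASEF. Competition ratio = intensity DMSO / intensity compound (n=4 treated, n=64 DMSO); binding: mean log2 CR ≥ 1 and p ≤ 0.05 plus QC filters. Target is the cysteine site.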
row,Target,log2 mean competition ratio
1,ZC3HAV1 C645 (UniProt Q7Z2W4),-0.126
2,ZNF516 C165 (UniProt Q92618),0.00519
3,ZMYM3 C1197 (UniProt Q14202),-0.219
4,ZC3HC1 C208 (UniProt Q86WB0),0.183
5,ZFYVE16 C313 (UniProt Q7Z3T8),0.199
6,ZC3H8 C46 (UniProt Q8N5P1),-0.444
7,ZNF106 C544 (UniProt Q9H2Y7),-0.332
8,ZNF185 C615,0.126
9,ZMYM3 C557 (UniProt Q14202),0.145
10,ZCCHC3 C348 (UniProt Q9NUD5),0.204
11,ZNF574 C656 (UniProt Q6ZN55),-0.213
12,ZFYVE1 C217 (UniProt Q9HBF4),0.194
13,ZNF264 C84,-0.29
14,ZFYVE16 C863 (UniProt Q7Z3T8),0.164
15,ZWILCH C7 (UniProt Q9H900),-0.182
16,ZNF638 C652 (UniProt Q14966),-0.123
17,ZNF684 C49,0.00461
18,ZNF687 C755 (UniProt Q8N1G0),0.0492
19,ZNF451 C461 (UniProt Q9Y4E5),-0.329
20,ZC3HAV1 C96 (UniProt Q7Z2W4),-0.25

# Same assay, conditions: 200 µM; treatment time: 4 h; cell line lysate: HEK293T
row,Target,log2 mean competition ratio
1,ZC3HAV1 C645 (UniProt Q7Z2W4),0.118
2,ZNF516 C165 (UniProt Q92618),0.202
3,ZMYM3 C1197 (UniProt Q14202),0.348
4,ZC3HC1 C208 (UniProt Q86WB0),0.208
5,ZFYVE16 C313 (UniProt Q7Z3T8),0.125
6,ZC3H8 C46 (UniProt Q8N5P1),0.139
7,ZNF106 C544 (UniProt Q9H2Y7),-0.215
8,ZNF185 C615,-0.0557
9,ZMYM3 C557 (UniProt Q14202),-0.176
10,ZCCHC3 C348 (UniProt Q9NUD5),0.158
11,ZNF574 C656 (UniProt Q6ZN55),-0.0505
12,ZFYVE1 C217 (UniProt Q9HBF4),-0.233
13,ZNF264 C84,0.015
14,ZFYVE16 C863 (UniProt Q7Z3T8),0.358
15,ZWILCH C7 (UniProt Q9H900),-0.202
16,ZNF638 C652 (UniProt Q14966),0.47
17,ZNF684 C49,0.0694
18,ZNF687 C755 (UniProt Q8N1G0),-0.108
19,ZNF451 C461 (UniProt Q9Y4E5),-0.0598
20,ZC3HAV1 C96 (UniProt Q7Z2W4),0.126
